Laboratory results published in patent US20250171508A1 (published 2025).
Where a sequence shows no end group, the ends are not given.

Experiment: general procedure: Fmoc solid-phase peptide synthesis
Settings: whole synthesis, 220 nm

| Sequence | final HPLC purity |
| --- | --- |
| AADQPENHQALAEPVTGVGEAGVSPVNEAGESYSSATSGVQ | 95% |
| AGIKLTVPIEKFPVTTQTFVVGC | 99% |
| DKKSTAAVILTPTEN | 97% |
| EVPPPNAQELPPPNSQELPPPNSQELP | 95% |
| FLVAAALGGLAADQPENHQALAEPVTGVGEAGVSPVNEAG | 95% |
| FRKRGVRSDAEVTDDNIYEEHTDRK | 95% |
| GQGDSLAEDDTTSEAAEGDVDPFPVLANEGK | 96% |
| GSFLMPVKPHANADDFASDDNYET | 95% |
| GTSTNESASENSEDDTFHDALQE | 96% |
| GVQEATAPGAVLLEAIDAESDKVDNQAEGGE | 96% |
| KDSSSSESTVTPADEAASESEEGDKTS | 97% |
| LVAAALPQFATAATASDDELMSRIRNSDFFD | 96% |
| PAGNNDGSSAPTPK | 98% |
| PALEQEVPESGEDGE | 95% |
| PPPPTQGEQPEGQQP | 99% |
| TGSSGGQQEAVGTTEDYVNSSAM | 96% |
| VFQCGDKLTISPSGEGDVFYGKE | 96% |
